Reference: PMC7845544 (Frontiers in Pharmacology, 2021)

The chains behind the UniProt entries cited, without tags or fusion partners. Residues count along the entry.
UniProt P22888, 27-699 limits assumed: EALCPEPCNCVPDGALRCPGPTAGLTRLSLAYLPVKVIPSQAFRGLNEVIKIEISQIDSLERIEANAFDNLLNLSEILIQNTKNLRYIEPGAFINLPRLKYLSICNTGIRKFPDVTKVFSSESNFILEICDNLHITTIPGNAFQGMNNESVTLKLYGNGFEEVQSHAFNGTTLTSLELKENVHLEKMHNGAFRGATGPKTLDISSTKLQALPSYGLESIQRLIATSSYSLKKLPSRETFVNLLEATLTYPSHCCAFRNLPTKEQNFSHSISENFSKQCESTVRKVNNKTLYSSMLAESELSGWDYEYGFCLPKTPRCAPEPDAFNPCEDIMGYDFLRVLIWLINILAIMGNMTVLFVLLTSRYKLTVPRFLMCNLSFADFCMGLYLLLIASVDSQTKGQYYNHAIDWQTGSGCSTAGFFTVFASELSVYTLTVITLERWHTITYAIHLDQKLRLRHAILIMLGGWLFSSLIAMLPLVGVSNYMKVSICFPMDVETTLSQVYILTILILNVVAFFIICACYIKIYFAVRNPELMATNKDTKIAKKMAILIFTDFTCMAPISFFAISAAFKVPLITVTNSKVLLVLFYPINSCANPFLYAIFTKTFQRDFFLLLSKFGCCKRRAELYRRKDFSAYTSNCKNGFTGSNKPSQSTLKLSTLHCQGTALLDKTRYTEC

Columns and labels:
[1] = molecular target: hLH/CGR (Homo sapiens, UniProt P22888); assay: cAMP (HTRF) in CHO cells transfected with hLH/CGR; conditions: CHO assays
[2] = tested on: human granulosa cells; assay: Estradiol production from pooled human granulosa-lutein cells (Boston IVF); conditions: second culture (Figure 4B)

In the case of `COc1cc2c(cc1-c1cnn(CCO)c1)-c1c(c(C(=O)N(C)C(C)(C)C)nn1-c1cc(Cl)cc(Cl)c1)CO2` [TOP5300], the “Ratio of EC50 LHR/FSHR” value [1] is reported as “approximately 6 and 6” and the “fold greater maximal estradiol response than rec-hFSH” value [2] is reported as 7 fold and approximately 7 fold.

Some entries of the source have several records that differ or are many. The other results are left out here. An entry can have further records. The values listed for one entry do not match, cause unknown; some may be repeats, others may stem from another dose, organism or construct than stated.
